Results deposited as PubChem BioAssay AID504791 (Drosophila RNAi Screening Center, 2011).

Aim: 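Factors in Argonaute-based small RNA production and activity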 (primary screen)
Cells: Drosophila S2-derived reporter cells
Reagents: long dsRNA against Drosophila genes, about 150-250 ng dsRNA per well (siRNA assay); about 80-120 ng (miRNA assay)
Duration: about 5 days (siRNA assay); about 4 days (miRNA assay)
Conditions: copper sulfate induction of reporters: 25 µM (siRNA assay); 200 mM stated (miRNA assay), 1-2 days before reading
Detection: 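Per-well ratio of Renilla over firefly light, expressed relative to that plate's average ratio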
Reading the numbers: siRNA reporter hit score: higher = 3 marks a strong hit with raised ratio; -3 a strong hit with lowered ratio
Active means: 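First-pass picks had plate-scaled ratios over 1.5 for the siRNA assay, over 1.6 for the miRNA assay, or under 0.6; two distinct dsRNAs had to score alike on retest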
The deposit covers about 23,000 reagents; this is a random part of those that have a named target and a result. In the full data, 199 (0.86%) are marked active. 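Plate-scaled ratios behind the calls are not deposited; printed light signals are raw; many rows marked increased or decreased are still called inactive.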 Entries without a mark were called inactive. The numbers tell different reagents against one gene apart. A plus sign joins genes that one reagent is predicted to hit.

| gene knocked down | reagent | siRNA reporter hit score | miRNA reporter change | stable assay Renilla, run 1 (luminescence) | stable assay firefly, run 1 (luminescence) |
| --- | --- | --- | --- | --- | --- |
| U3-55K (U3 small nuclear riboprotein factor 55K) | 1 | – | – | 5675 | 3.33e5 |
| Uba3 (Ubiquitin-like activating enzyme 3) | 1 | – | – | 8675 | 3.85e5 |
| CG6431 | 1 | – | – | 6567 | 4.25e5 |
| CG9698 | 1 | – | – | 6676 | 4.55e5 |
| Usp20-33 (Ubiquitin specific protease 20/33) | 1 | – | – | 7655 | 3.92e5 |
| Ranbp16 | 1 | – | – | 4548 | 3.52e5 |
| Nuf2 | 1 | – | – | 15132 | 2.63e5 |
| CG33791 + CG12105 + CG18170 | 1 | – | – | 11594 | 3.82e5 |
| Hsp60C (Heat shock protein 60C) | 1 | – | – | 8618 | 6.51e5 |
| asRNA:CR31084 (antisense RNA:CR31084) | 1 | – | – | 8406 | 6.76e5 |
| Neto (Neuropilin and tolloid-like) | 1 | – | – | 5163 | 3.82e5 |
| Neto (Neuropilin and tolloid-like) | 2 | – | – | 8356 | 5.82e5 |
| Neto (Neuropilin and tolloid-like) | 3 | – | – | 4311 | 3.35e5 |
| Neto (Neuropilin and tolloid-like) | 4 | – | – | 4403 | 3.42e5 |
| Or22b (Odorant receptor 22b) | 1 | – | – | 6139 | 3.96e5 |
| e(r) (enhancer of rudimentary) | 1 | – | – | 7394 | 4.11e5 |
| CG4666 | 1 | – | – | 5700 | 3.13e5 |
| CG15035 | 1 | – | – | 6131 | 2.73e5 |
| Lapsyn (Leucine-rich repeat activity-regulated protein at synapses) | 1 | – | – | 1.74e5 | 2.50e5 |
| CG14795 | 1 | – | – | 7112 | 5.62e5 |
| CG8172 | 1 | – | – | 6666 | 4.64e5 |
| CG8172 | 2 | – | – | 10751 | 6.00e5 |
| ytr (yantar) | 1 | – | – | 21162 | 8.78e5 |
| ytr (yantar) | 2 | – | – | 8867 | 5.68e5 |
| CG32109 | 1 | – | – | 6552 | 4.13e5 |
| CG11663 | 1 | – | – | 5751 | 2.83e5 |
| CG11663 | 2 | – | – | 3892 | 3.06e5 |
| Ns4 (Nucleostemin 4) | 1 | – | – | 16843 | 6.04e5 |
| RpLP1 (Ribosomal protein LP1) | 1 | – | – | 10540 | 6.81e5 |
| RpLP1 (Ribosomal protein LP1) | 2 | – | – | 8927 | 8.42e5 |
| Mmp2 (Matrix metalloproteinase 2) | 1 | – | – | 6759 | 3.58e5 |
| Mmp2 (Matrix metalloproteinase 2) | 2 | – | – | 9108 | 5.82e5 |
| CG14693 | 1 | – | – | 8072 | 4.81e5 |
| Tap42 (Two A-associated protein of 42kDa) | 1 | – | – | 7180 | 4.16e5 |
| CG1663 | 1 | – | – | 5822 | 3.47e5 |
| CG1663 | 2 | – | – | 3251 | 2.83e5 |
| KFase (Kynurenine formamidase) | 1 | – | – | 7070 | 4.34e5 |
| CG42340 | 1 | – | – | 5552 | 3.55e5 |
| CG42340 | 2 | – | – | 5316 | 3.05e5 |
| CG42340 | 3 | – | – | 4675 | 2.56e5 |
| CG42340 | 4 | – | – | 9333 | 4.68e5 |
| qkr58E-1 (quaking related 58E-1) | 1 | – | – | 13851 | 5.40e5 |
| ergic53 | 1 | – | – | 7512 | 4.60e5 |
| CG30002 | 1 | – | – | 4879 | 4.49e5 |
| eIF3j (eukaryotic translation initiation factor 3 subunit j) | 1 | – | – | 8114 | 6.46e5 |
| dock (dreadlocks) | 1 | – | – | 10725 | 2.25e5 |
| al (aristaless) | 1 | – | – | 4611 | 3.26e5 |
| CG31826 | 1 | – | – | 8162 | 5.54e5 |
| tacc (transforming acidic coiled-coil protein) | 1 | – | – | 6403 | 4.73e5 |
| tacc (transforming acidic coiled-coil protein) | 2 | – | – | 4031 | 5.25e5 |
| RpS2 (Ribosomal protein S2) | 1 | -3 | – | 7684 | 6.86e5 |

The list goes on (11 carried over from the part before).
| gene knocked down | reagent | siRNA reporter hit score | miRNA reporter change | stable assay Renilla, run 1 (luminescence) | stable assay firefly, run 1 (luminescence) |
| --- | --- | --- | --- | --- | --- |
| CG42340 | 4 | – | – | 9333 | 4.68e5 |
| qkr58E-1 (quaking related 58E-1) | 1 | – | – | 13851 | 5.40e5 |
| ergic53 | 1 | – | – | 7512 | 4.60e5 |
| CG30002 | 1 | – | – | 4879 | 4.49e5 |
| eIF3j (eukaryotic translation initiation factor 3 subunit j) | 1 | – | – | 8114 | 6.46e5 |
| dock (dreadlocks) | 1 | – | – | 10725 | 2.25e5 |
| al (aristaless) | 1 | – | – | 4611 | 3.26e5 |
| CG31826 | 1 | – | – | 8162 | 5.54e5 |
| tacc (transforming acidic coiled-coil protein) | 1 | – | – | 6403 | 4.73e5 |
| tacc (transforming acidic coiled-coil protein) | 2 | – | – | 4031 | 5.25e5 |
| RpS2 (Ribosomal protein S2) | 1 | -3 | – | 7684 | 6.86e5 |
| Ref1 (RNA and export factor binding protein 1) | 1 | – | – | 4459 | 3.54e5 |
| Ref1 (RNA and export factor binding protein 1) | 2 | – | – | 11227 | 6.41e5 |
| Rae1 | 1 | – | – | 6050 | 4.98e5 |
| CG30274 | 1 | – | – | 6047 | 3.49e5 |
| CG8155 | 1 | – | – | 12023 | 5.17e5 |
| CG8155 | 2 | – | – | 8659 | 4.47e5 |
| Spn28B (Serpin 28B) | 1 | – | – | 4643 | 3.56e5 |
| CG14718 | 1 | – | – | 8299 | 5.47e5 |
| CG33322 | 1 | – | – | 6150 | 3.88e5 |
| Nxt1 (NTF2-related export protein 1) | 1 | – | – | 10767 | 5.35e5 |
| CG7299 | 1 | – | – | 7494 | 4.84e5 |
| Grl43a (Gustatory receptor-like 43a) | 1 | – | – | 6822 | 3.34e5 |
| CG6421 | 1 | – | – | 6139 | 3.65e5 |
| CG32117 | 1 | – | – | 9697 | 4.48e5 |
| CG6962 | 1 | – | – | 9124 | 4.28e5 |
| hoe2 (hoepel2) | 1 | – | – | 7372 | 3.32e5 |
| Snx3 (Sorting nexin 3) | 1 | – | – | 6667 | 3.82e5 |
| CG34008 | 1 | – | – | 5383 | 4.85e5 |
| CR33315 (pseudo) | 1 | – | – | 4811 | 3.51e5 |
| fwe (flower) | 1 | – | – | 5779 | 3.53e5 |
| fwe (flower) | 2 | – | – | 8966 | 3.85e5 |
| fwe (flower) | 3 | – | – | 10682 | 4.62e5 |
| foi (fear-of-intimacy) | 1 | – | reporter ratio raised past the hit cutoff | 6896 | 3.61e5 |
| foi (fear-of-intimacy) | 2 | – | reporter ratio raised past the hit cutoff | – | – |
| CG13484 | 1 | – | – | 8150 | 3.85e5 |
| eag (ether a go-go) | 1 | – | – | 4536 | 3.61e5 |
| eag (ether a go-go) | 2 | – | – | 4435 | 3.14e5 |
| CG14362 | 1 | – | – | 6447 | 3.42e5 |
| CG9014 | 1 | – | – | 6962 | 4.14e5 |
| CG9933 | 1 | – | – | 7719 | 4.09e5 |
| CkIIalpha-i1 (CKII-alpha subunit interactor-1) | 1 | – | – | 9898 | 4.01e5 |
| Nca (Neurocalcin) | 1 | – | – | 7203 | 3.30e5 |
